From PubChem BioAssay AID248 (DTP/NCI, 2004)
The list is a part of this screen's results and no random one: it gathers some chemical classes. Other doses and runs of a compound may be missing. T/C gives the treated animals as a percentage of the vehicle group. Where survival is the endpoint, the PubChem record calls one and a half times the control and up active, and a quarter to a half above the control has no call in these data; cut-offs in other NCI protocols can differ. Some T/C values are marked as having no survivor count here; that says nothing about deaths at the dose. Schedule codes are those of the source, read here as Q, the interval in days (D) or hours (H), X, the number of doses. Some entries hold several experiments; their values stand side by side, smallest first. Some schedules carry Z or #; the key to these is not given.

Tested on: L1210 leukemia ip in BDF1 mice, survival T/C
Assay: NCI In Vivo Anticancer Drug Screen. Data for tumor model L1210 Leukemia (intraperitoneal) in B6D2F1 (BDF1) mice
Conditions: T/C endpoint: mean survival time, higher T/C = longer survival
[1] = dose: 50.0 mg/kg/injection, schedule: Q01DX001 (ip), vehicle: saline
[2] = dose: 100.0 mg/kg/injection, schedule: Q01DX001 (ip), vehicle: saline

In the case of `ClCCNCCCNCCCl`, the T/C (dose: 2.5 mg/kg/injection, schedule: Q#A X034 (ip), vehicle: saline) is reported as 105 % of control [survivor count not shown], the T/C (dose: 5.0 mg/kg/injection, schedule: Q01DX017 (ip), vehicle: saline) is reported as 113 % of control [survivor count not shown] and the T/C (dose: 5.0 mg/kg/injection, schedule: Q02DX009 (ip), vehicle: saline) is reported as 104 % of control [survivor count not shown]. The T/C (dose: 5.0 mg/kg/injection, schedule: Q#A X034 (ip), vehicle: saline) was 119 % of control [survivor count not shown], the T/C (dose: 10.0 mg/kg/injection, schedule: Q01DX017 (ip), vehicle: saline) was 126 % of control [survivor count not shown] and the T/C (dose: 10.0 mg/kg/injection, schedule: Q01DX Z (ip), vehicle: saline) was 101 [survivor count not shown] and 116 % of control [survivor count not shown]. The T/C (dose: 10.0 mg/kg/injection, schedule: Q02DX009 (ip), vehicle: saline) was 111 % of control [survivor count not shown], the T/C (dose: 10.0 mg/kg/injection, schedule: Q#A X034 (ip), vehicle: saline) was 130 % of control [survivor count not shown] and the T/C (dose: 12.5 mg/kg/injection, schedule: Q01DX Z (ip), vehicle: saline) was 105 % of control [survivor count not shown]. The T/C (dose: 12.5 mg/kg/injection, schedule: Q01DX Z (oral), vehicle: saline) was 122 % of control [survivor count not shown], the T/C (dose: 16.0 mg/kg/injection, schedule: Q01DX Z (ip), vehicle: saline) was 121 [survivor count not shown] and 130 % of control [survivor count not shown] and the T/C (dose: 20.0 mg/kg/injection, schedule: Q01DX017 (ip), vehicle: saline) was 152 % of control [survivor count not shown]. The T/C (dose: 20.0 mg/kg/injection, schedule: Q02DX009 (ip), vehicle: saline) was 138 % of control [survivor count not shown], the T/C (dose: 20.0 mg/kg/injection, schedule: Q#A X034 (ip), vehicle: saline) was 195 % of control [survivor count not shown] and the T/C (dose: 24.0 mg/kg/injection, schedule: Q01DX Z (ip), vehicle: saline) was 128 [survivor count not shown], 134 [survivor count not shown], 138 % of control [survivor count not shown]. The T/C (dose: 25.0 mg/kg/injection, schedule: Q01DX Z (ip), vehicle: saline) was 129 % of control [survivor count not shown], the T/C (dose: 25.0 mg/kg/injection, schedule: Q01DX Z (oral), vehicle: saline) was 135 % of control [survivor count not shown] and the T/C (dose: 36.0 mg/kg/injection, schedule: Q01DX Z (ip), vehicle: saline) was 137 [survivor count not shown], 140 [survivor count not shown], 176 % of control [survivor count not shown]. The T/C (dose: 40.0 mg/kg/injection, schedule: Q01DX017 (ip), vehicle: saline) was 175 % of control [survivor count not shown], the T/C (dose: 40.0 mg/kg/injection, schedule: Q02DX009 (ip), vehicle: saline) was 184 % of control [survivor count not shown] and the T/C (dose: 40.0 mg/kg/injection, schedule: Q#A X034 (ip), vehicle: saline) was 93 % of control [survivor count not shown]. For the same compound, the T/C [1] was 108 [survivor count not shown] and 110 % of control [survivor count not shown], the T/C (dose: 50.0 mg/kg/injection, schedule: Q01DX Z (ip), vehicle: saline) was 224 % of control [survivor count not shown] and the T/C (dose: 50.0 mg/kg/injection, schedule: Q01DX Z (oral), vehicle: saline) was 186 % of control [survivor count not shown]. For the same compound, the T/C (dose: 54.0 mg/kg/injection, schedule: Q01DX Z (ip), vehicle: saline) was 181 % of control [survivor count not shown], the T/C (dose: 80.0 mg/kg/injection, schedule: Q01DX017 (ip), vehicle: saline) was 119 % of control [survivor count not shown] and the T/C (dose: 80.0 mg/kg/injection, schedule: Q02DX009 (ip), vehicle: saline) was 187 % of control [survivor count not shown]. For the same compound, the T/C (dose: 81.0 mg/kg/injection, schedule: Q01DX Z (ip), vehicle: saline) was 90 % of control [survivor count not shown], the T/C [2] was 125 [survivor count not shown] and 142 % of control [survivor count not shown] and the T/C (dose: 100.0 mg/kg/injection, schedule: Q01DX Z (ip), vehicle: saline) was 112 % of control [survivor count not shown]. For the same compound, the T/C (dose: 100.0 mg/kg/injection, schedule: Q01DX Z (oral), vehicle: saline) was 111 % of control [survivor count not shown], the T/C (dose: 160.0 mg/kg/injection, schedule: Q02DX009 (ip), vehicle: saline) was 91 % of control [survivor count not shown] and the T/C (dose: 200.0 mg/kg/injection, schedule: Q01DX001 (ip), vehicle: saline) was 136 [survivor count not shown] and 147 % of control [survivor count not shown].

For `O=C(OC1CC2CCCC(C1)N2Cc1ccccc1)C(O)(c1ccccc1)c1ccccc1` (stereo not drawn), the T/C (dose: 100.0 mg/kg/injection, schedule: Q01DX001 (ip), vehicle: Klucel (hydroxypropylcellulose) (HPC)) was 101 % of control [survivor count not shown], the T/C (dose: 200.0 mg/kg/injection, schedule: Q01DX001 (ip), vehicle: Klucel (hydroxypropylcellulose) (HPC)) was 97 % of control [survivor count not shown] and the T/C (dose: 400.0 mg/kg/injection, schedule: Q01DX001 (ip), vehicle: Klucel (hydroxypropylcellulose) (HPC)) was 92 % of control [survivor count not shown].

`CN1CCCC(COC(=O)C(O)(c2ccccc2)c2ccccc2)C1` (stereo not drawn) was tested, and the T/C (dose: 25.0 mg/kg/injection, schedule: Q01DX009 (ip), vehicle: Klucel (hydroxypropylcellulose) (HPC)) was 94 % of control [survivor count not shown], the T/C (dose: 25.0 mg/kg/injection, schedule: Q04DX003 (ip), vehicle: Klucel (hydroxypropylcellulose) (HPC)) was 103 % of control [survivor count not shown] and the T/C (dose: 50.0 mg/kg/injection, schedule: Q01DX009 (ip), vehicle: Klucel (hydroxypropylcellulose) (HPC)) was 94 % of control [survivor count not shown]. For the same compound, the T/C (dose: 50.0 mg/kg/injection, schedule: Q04DX003 (ip), vehicle: Klucel (hydroxypropylcellulose) (HPC)) was 105 % of control [survivor count not shown].

With `FC(F)(F)c1cccc(CN(CCCl)CCCl)c1` the T/C (dose: 12.5 mg/kg/injection, schedule: Q01DX001 (ip), vehicle: saline) was 94 % of control [survivor count not shown], the T/C (dose: 25.0 mg/kg/injection, schedule: Q01DX001 (ip), vehicle: saline) was 100 % of control [survivor count not shown] and the T/C [1] was 111 % of control [survivor count not shown]. For the same compound, the T/C [2] was 116 % of control [survivor count not shown].

For `CN1C2CCC1CC(OC(=O)C(O)(c1ccccc1)c1ccccc1)C2` (stereo not drawn), the T/C (dose: 38.0 mg/kg/injection, schedule: Q04DX003 (ip), vehicle: other) was 97 % of control [survivor count not shown], the T/C (dose: 75.0 mg/kg/injection, schedule: Q01DX001 (ip), vehicle: other) was 102 % of control [survivor count not shown] and the T/C (dose: 75.0 mg/kg/injection, schedule: Q04DX003 (ip), vehicle: other) was 105 % of control [survivor count not shown]. For the same compound, the T/C (dose: 150.0 mg/kg/injection, schedule: Q01DX001 (ip), vehicle: other) was 104 % of control [survivor count not shown].
